{"source": "PubChem BioAssay AID1224828, NIAID, 2016", "test": "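Knock-downs that increase or decrease LPS-induced p65 nuclear translocation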 (primary screen)", "cells": "mouse RAW264.7 G9 macrophage reporter cells (GFP-p65, Tnf promoter-mCherry)", "reagent": "siRNA pool against mouse genes, 100 nM", "duration": "2 days siRNA transfection, then 40 min LPS before fixation", "conditions": "LPS (Salmonella minnesota R595) at 10 ng/ml", "measured": "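Imaged p65 nuclear translocation ratio, normalised to the plate median, converted to robust z-scores and averaged across two replicates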", "direction": "p65 translocation robust z-score: higher = more nuclear NF-kappaB p65 after LPS than the plate median; nuclear/cytoplasmic p65 ratio: higher = more nuclear NF-kappaB p65", "active means": "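Active if robust z is above 3.3 (negative regulators) or below -1.56, the Tlr4 control median (positive regulators); activity score 50 or more; control wells not called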", "calls": "active = hit (p65 shift raised or lowered); inactive = no clear change", "note": "This is a random part of about 17,000 deposited reagents. Over the whole deposit, 762 (4.5%) were called active. 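Active calls include both raised and lowered p65 entry, mostly lowered; wells with fewer than 50 cells lack a z-score.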 The raw values are shown without normalisation. Unmarked entries are inactive. No sequences are given here."}
{"gene knocked down": "Ercc6l", "p65 translocation robust z-score": 0.92, "nuclear/cytoplasmic p65 ratio, rep 1": 1.8, "nuclear/cytoplasmic p65 ratio, rep 2": 1.9, "low cell count flag": "enough cells to score"}
{"gene knocked down": "Erp27", "nuclear/cytoplasmic p65 ratio, rep 1": 1.33, "nuclear/cytoplasmic p65 ratio, rep 2": 0.911, "low cell count flag": "fewer than 50 cells per well; well left out of scoring"}
{"gene knocked down": "Nek11", "p65 translocation robust z-score": -1.1, "nuclear/cytoplasmic p65 ratio, rep 1": 1.59, "nuclear/cytoplasmic p65 ratio, rep 2": 1.24, "low cell count flag": "enough cells to score"}
{"gene knocked down": "Or5b99", "nuclear/cytoplasmic p65 ratio, rep 1": 1.32, "nuclear/cytoplasmic p65 ratio, rep 2": 1.2, "low cell count flag": "fewer than 50 cells per well; well left out of scoring"}
{"gene knocked down": "Trappc2", "p65 translocation robust z-score": -0.03, "nuclear/cytoplasmic p65 ratio, rep 1": 1.44, "nuclear/cytoplasmic p65 ratio, rep 2": 1.19, "low cell count flag": "enough cells to score"}
{"gene knocked down": "Zfp729a", "p65 translocation robust z-score": 0.45, "nuclear/cytoplasmic p65 ratio, rep 1": 1.46, "nuclear/cytoplasmic p65 ratio, rep 2": 1.57, "low cell count flag": "enough cells to score"}
{"gene knocked down": "Fut2b", "p65 translocation robust z-score": "-1.63 (active)", "nuclear/cytoplasmic p65 ratio, rep 1": 1.19, "nuclear/cytoplasmic p65 ratio, rep 2": 1.07, "low cell count flag": "enough cells to score"}
{"gene knocked down": "Gpr149", "p65 translocation robust z-score": 1.43, "nuclear/cytoplasmic p65 ratio, rep 1": 1.65, "nuclear/cytoplasmic p65 ratio, rep 2": 1.85, "low cell count flag": "enough cells to score"}
{"gene knocked down": "Lrriq4", "p65 translocation robust z-score": 2.24, "nuclear/cytoplasmic p65 ratio, rep 1": 1.6, "nuclear/cytoplasmic p65 ratio, rep 2": 1.57, "low cell count flag": "enough cells to score"}

The list goes on, starting with the last 2 of the part before.
{"gene knocked down": "Gpr149", "p65 translocation robust z-score": 1.43, "nuclear/cytoplasmic p65 ratio, rep 1": 1.65, "nuclear/cytoplasmic p65 ratio, rep 2": 1.85, "low cell count flag": "enough cells to score"}
{"gene knocked down": "Lrriq4", "p65 translocation robust z-score": 2.24, "nuclear/cytoplasmic p65 ratio, rep 1": 1.6, "nuclear/cytoplasmic p65 ratio, rep 2": 1.57, "low cell count flag": "enough cells to score"}
{"gene knocked down": "9530019H20Rik", "p65 translocation robust z-score": 0.1, "nuclear/cytoplasmic p65 ratio, rep 1": 1.43, "nuclear/cytoplasmic p65 ratio, rep 2": 1.57, "low cell count flag": "enough cells to score"}
{"gene knocked down": "Baz2a", "p65 translocation robust z-score": 1.08, "nuclear/cytoplasmic p65 ratio, rep 1": 1.71, "nuclear/cytoplasmic p65 ratio, rep 2": 2.06, "low cell count flag": "enough cells to score"}
{"gene knocked down": "Dync1i2", "p65 translocation robust z-score": "-1.71 (active)", "nuclear/cytoplasmic p65 ratio, rep 1": 1.24, "nuclear/cytoplasmic p65 ratio, rep 2": 1.16, "low cell count flag": "enough cells to score"}
{"gene knocked down": "Micall2", "p65 translocation robust z-score": 0.89, "nuclear/cytoplasmic p65 ratio, rep 1": 1.55, "nuclear/cytoplasmic p65 ratio, rep 2": 1.6, "low cell count flag": "enough cells to score"}
{"gene knocked down": "Kcnh7", "p65 translocation robust z-score": 0.55, "nuclear/cytoplasmic p65 ratio, rep 1": 1.55, "nuclear/cytoplasmic p65 ratio, rep 2": 1.45, "low cell count flag": "enough cells to score"}
